Laboratory results: article PMC10275998
These are yes or no findings as the source states them, for the method shown. In cells and extracts the contact can be indirect. Binding calls can cover weak binding; strength is not graded here. Sequences can lack the tags named with a protein.

Biological target: C-terminal segment of YFP (YC)-fused NIb of TuMV (turnip mosaic virus)
Test: split reporter; BiFC: YN- and YC-fused proteins co-expressed in N. benthamiana epidermal cells by agroinfiltration, confocal microscopy at 2 dpi

B1: YN-fused Arabidopsis TCP4 (protein, UniProt Q8LPR5 1-420)
chain: MSDDQFHHPPPPSSMRHRSTSDAADGGCGEIVEVQGGHIVRSTGRKDRHSKVCTAKGPRDRRVRLSAHTAIQFYDVQDRLGFDRPSKAVDWLIKKAKTSIDELAELPPWNPADAIRLAAANAKPRRTTAKTQISPSPPPPQQQQQQQQLQFGVGFNGGGAEHPSNNESSFLPPSMDSDSIADTIKSFFPVIGSSTEAPSNHNLMHNYHHQHPPDLLSRTNSQNQDLRLSLQSFPDGPPSLLHHQHHHHTSASASEPTLFYGQSNPLGFDTSSWEQQSSEFGRIQRLVAWNSGGGGGATDTGNGGGFLFAPPTPSTTSFQPVLGQSQQLYSQRGPLQSSYSPMIRAWFDPHHHHQSISTDDLNHHHHLPPPVHQSAIPGIGFASGEFSSGFRIPARFQGQEEEQHDGLTHKPSSASSISRH
binding: binds

B2: YN-fused Arabidopsis TCP3 (protein, UniProt Q9MAH8 1-391)
chain: MAPDNDHFLDSPSPPLLEMRHHQSATENGGGCGEIVEVQGGHIVRSTGRKDRHSKVCTAKGPRDRRVRLSAPTAIQFYDVQDRLGFDRPSKAVDWLITKAKSAIDDLAQLPPWNPADTLRQHAAAAANAKPRKTKTLISPPPPQPEETEHHRIGEEEDNESSFLPASMDSDSIADTIKSFFPVASTQQSYHHQPPSRGNTQNQDLLRLSLQSFQNGPPFPNQTEPALFSGQSNNQLAFDSSTASWEQSHQSPEFGKIQRLVSWNNVGAAESAGSTGGFVFASPSSLHPVYSQSQLLSQRGPLQSINTPMIRAWFDPHHHHHHHQQSMTTDDLHHHHPYHIPPGIHQSAIPGIAFASSGEFSGFRIPARFQGEQEEHGGDNKPSSASSDSRH
binding: binds

B3: YN-fused Arabidopsis CRF6 (protein, UniProt Q9M374 1-315)
chain: MERRTRRVKFTENRTVTNVAATPSNGSPRLVRITVTDPFATDSSSDDDDNNNVTVVPRVKRYVKEIRFCQGESSSSTAARKGKHKEEESVVVEDDVSTSVKPKKYRGVRQRPWGKFAAEIRDPSSRTRIWLGTFVTAEEAAIAYDRAAIHLKGPKALTNFLTPPTPTPVIDLQTVSACDYGRDSRQSLHSPTSVLRFNVNEETEHEIEAIELSPERKSTVIKEEEESSAGLVFPDPYLLPDLSLAGECFWDTEIAPDLLFLDEETKIQSTLLPNTEVSKQGENETEDFEFGLIDDFESSPWDVDHFFDHHHHSFD
binding: binds

B4: YN-fused Arabidopsis ERF5 (protein, UniProt O80341 1-300)
chain: MATPNEVSALWFIEKHLLDEASPVATDPWMKHESSSATESSSDSSSIIFGSSSSSFAPIDFSESVCKPEIIDLDTPRSMEFLSIPFEFDSEVSVSDFDFKPSNQNQNQFEPELKSQIRKPPLKISLPAKTEWIQFAAENTKPEVTKPVSEEEKKHYRGVRQRPWGKFAAEIRDPNKRGSRVWLGTFDTAIEAARAYDEAAFRLRGSKAILNFPLEVGKWKPRADEGEKKRKRDDDEKVTVVEKVLKTEQSVDVNGGETFPFVTSNLTELCDWDLTGFLNFPLLSPLSPHPPFGYSQLTVV
binding: binds

B5: YN-fused Arabidopsis SPL4/FTM6 (protein, UniProt Q9S7A9 1-174)
chain: MEGKRSQGQGYMKKKSYLVEEDMETDTDEEEEVGRDRVRGSRGSINRGGSLRLCQVDRCTADMKEAKLYHRRHKVCEVHAKASSVFLSGLNQRFCQQCSRFHDLQEFDEAKRSCRRRLAGHNERRRKSSGESTYGEGSGRRGINGQVVMQNQERSRVEMTLPMPNSSFKRPQIR
binding: binds
